# The whole screen tested about 140,000 compounds, of which about 4,300 (3.1%) were called active. Inconclusive results, whose numbers are uncertain, are shown with a selection of clear calls.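 Rule for the calls: active = readout at or below -70, meaning at least 70% loss of cells showing the perinucleolar compartment, a nuclear body marking cancer cells; inconclusive = readout between -30 and a set limit; inactive = the rest.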
# Test: High Content Assay for Compounds that inhibit the Assembly of the Perinucleolar Compartment;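 note: plate controls were DMSO wells for no effect and camptothecin positive control wells for full effect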
# Details: PC3M PTB-GFP, PNC prevalence imaging, 16 h; at 10 µM; stronger effect = lower value
# Procedure, shortened: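 Read-out is percentage of cells bearing a perinucleolar compartment, from automated 20x imaging of fixed, Hoechst-stained PC3M PTB-GFP cells. Cells were seeded 4 h, then exposed 16 h to compound (23 nl of library stock) in duplicate plates.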
row,SMILES,"activity change (PNC), negative = inhibition"
1,Cn1c(=O)c2c(ncn2CC(=O)Nc2ccccc2N2CCOCC2)n(C)c1=O,inconclusive: -71.7%
2,CSc1ccc(/C=C(/NC(=O)c2ccc(C)cc2)C(=O)Nc2cccc(F)c2)cc1,inactive: 76.5%
3,COc1ccc(/C=N/NC(=O)CCn2cnc(-c3ccccc3)c2-c2ccccc2)cc1,active: -108%
4,Cn1c(NCCc2ccccc2)cc(=O)n(C)c1=O,inactive: -21.8%
5,CCOC(=O)C1CCN(C(=O)c2c(-c3c(Cl)cccc3Cl)noc2C)CC1,inconclusive: -30.4%
6,O=C(Nc1cc(Sc2nc3ccccc3s2)cc([N+](=O)[O-])c1)c1cccc(F)c1F,inconclusive: -50.9%
7,COc1ccc(OC)c(-c2cc(C(=O)N3CCCc4ccccc43)no2)c1,inconclusive: -42.2%
8,COc1cccc(CN(C)CC(=O)NC(=O)NCc2ccco2)c1,inconclusive: -52.3%
9,Cc1cc(C)cc(OCC(=O)Nc2ccc(N3CCCC3)cc2)c1,inconclusive: -64.8%
10,CN1CCN(S(=O)(=O)c2ccc(NC(=O)C3CCCCC3)cc2)CC1,inconclusive: -32.5%
11,Cc1cc(C)c(S(=O)(=O)N2CCOC2CNC(=O)C(=O)NCc2cccnc2)c(C)c1 (stereo not given),inconclusive: -73.9%
12,CSCCC(NC(=O)c1cccc([N+](=O)[O-])c1)c1nc2ccccc2[nH]1 (stereo not given),inconclusive: -56.9%
13,CC(C)[C@H](NC(=O)Nc1cccc(Br)c1)C(=O)O,active: -91.3%
14,CCCCn1c(SCC(=O)Nc2nnc(C(C)C)s2)nc2c1c(=O)n(C)c(=O)n2C,inconclusive: -35.8%
15,COCc1cc(=O)[nH]c(Sc2c(-c3ccccc3)c3ccc(Cl)cc3[nH]c2=O)n1,inactive: -14.6%
16,COc1cc(-c2nc(-c3cccc(C)c3)no2)cc(OC)c1OC,inconclusive: -53.4%
17,O=C(Nc1ccc(Cl)cc1)Nc1cc(S(=O)(=O)N2CCOCC2)ccc1N1CCCC1,inconclusive: -39%
18,CCc1cccc(CC)c1N(COC)C(=O)Cn1c(C(C)O)nc2ccccc21 (stereo not given),inconclusive: -64.3%
19,CN1CCCC(OC(=O)COc2ccc(Br)cc2)C1 (stereo not given),active: -86.4%
20,Cc1ccc(CNc2oc(-c3ccco3)nc2S(=O)(=O)c2ccccc2)cc1,inactive: -5.21%
21,c1ccc(-c2ccccc2OCCCN2CCCC2)cc1,active: -107%
22,CN(CC(=O)OCC(=O)NCc1ccccc1)S(=O)(=O)c1ccc(Cl)cc1,inconclusive: -37.6%
23,O=C(CSc1nc(-c2cccs2)cc(C(F)(F)F)n1)Nc1cc(OCC(F)(F)F)cc([N+](=O)[O-])c1,active: -89.9%

row,SMILES,"activity change (PNC), negative = inhibition"
1,CCOCCCNC(=O)/C(C#N)=C/c1ccc(-c2ccc(S(=O)(=O)N3CCOCC3)cc2)o1,inactive: 6.9%
2,NC(=O)Cc1nc(-c2ccc(Br)cc2)cs1,inactive: 43.6%
3,CCc1nnc(NC(=O)Cn2ccc(C(F)(F)F)n2)s1,inconclusive: -54.9%
4,Clc1ccccc1OCc1nc(-c2ccccn2)no1,inconclusive: -36.3%
5,COc1cc(C(=O)O/N=C2\C=CC(=O)C=C2C)cc(OC)c1OC,inconclusive: -62.1%
6,COc1ccc(OC)c(NC(=O)c2cc(-c3ccc(C)cc3O)n[nH]2)c1,inactive: 55.7%
7,COCCn1ccc(O)c(Cc2ccc(Cl)cc2)c1=O,inconclusive: -65.4%
8,CCOc1c(Cl)cc(C(=O)Nc2ccccc2-c2ccccc2)cc1Cl,inconclusive: -62.8%
9,CCN1CCc2c(sc(NC(=S)NC(=O)c3ccccc3)c2C#N)C1,inactive: 19.7%
10,Cn1c(=O)oc2cc(S(=O)(=O)N3CCCC(C(=O)N4CC=C(c5ccccc5)CC4)C3)ccc21 (stereo not given),inconclusive: -35%
11,CN(C)S(=O)(=O)c1cc(NC(=O)COC(=O)CCSc2ccc(Cl)cc2)ccc1Cl,active: -87.9%
12,COc1ccc(CC(=O)Nc2ccc(S(=O)(=O)Nc3ncccn3)cc2)cc1,inconclusive: -58.2%
13,C=CCn1c(N)c(S(=O)(=O)c2cccs2)c2nc3ccccc3nc21,inconclusive: -48%
14,N/C(=N\OC(=O)CCc1ccccc1)c1cccc(Br)c1,inconclusive: -30.4%
15,Cc1nc(SCC(=O)Nn2c(-c3ccccc3)nc3ccccc3c2=O)n[nH]1,inconclusive: -65.1%
16,CC(C)(C)NC(=O)c1cccc2c1OC(C)(C)C2,inconclusive: -35.7%
17,O=C(Nc1cccc(S(=O)(=O)c2cccc(NC(=O)C3CC3)c2)c1)C1CC1,inconclusive: -51.9%
18,Cc1cc(C)c(S(=O)(=O)N2CCCOC2CNC(=O)C(=O)NCCCn2ccnc2)c(C)c1 (stereo not given),inconclusive: -53.9%
19,O=C(CCN1CCC(c2ccccc2)C1)c1ccc2c(c1)OCCO2 (stereo not given),inconclusive: -41.9%
20,CCn1c(SCC(=O)Nc2ccccc2OC)nc2ccccc2c1=O,inconclusive: -34.5%
21,Cc1ccc(-c2nc(N)sc2CC(=O)OCC(=O)NC2CCCC(C)C2C)cc1 (stereo not given),inconclusive: -32.3%
22,Cc1ccc(-c2nc3ccccc3c(=O)n2CCN2CCOCC2)cc1,inconclusive: -58.1%
23,Cc1cc(=O)n2nc(-c3ccc(C(F)(F)F)cc3)sc2n1,inactive: 22.9%

# Exported as tab-separated lines: 5 of the compounds above.
row	SMILES	activity change (PNC), negative = inhibition
1	CCOCCCNC(=O)/C(C#N)=C/c1ccc(-c2ccc(S(=O)(=O)N3CCOCC3)cc2)o1	inactive: 6.9%
3	CCc1nnc(NC(=O)Cn2ccc(C(F)(F)F)n2)s1	inconclusive: -54.9%
13	C=CCn1c(N)c(S(=O)(=O)c2cccs2)c2nc3ccccc3nc21	inconclusive: -48%
19	O=C(CCN1CCC(c2ccccc2)C1)c1ccc2c(c1)OCCO2 (stereo not given)	inconclusive: -41.9%
21	Cc1ccc(-c2nc(N)sc2CC(=O)OCC(=O)NC2CCCC(C)C2C)cc1 (stereo not given)	inconclusive: -32.3%

# (more compounds)

row,SMILES,"activity change (PNC), negative = inhibition"
1,COC(=O)CSc1nc(C)c(C(C)=O)cc1C#N,inconclusive: -50.9%
2,Cc1ccc(-c2nnn(CC(=O)N(Cc3ccco3)C(C(=O)NC3CCCC3)c3cccs3)n2)o1 (stereo not given),active: -100%
3,O=C(NCc1ccccc1)c1ccc2c(c1)OCCO2,inactive: 0.292%
4,O=C(NCN1C(=O)C2C3C=CC(C3)C2C1=O)OC1CCCCC1 (stereo not given),inactive: 26.6%
5,Cc1noc(C)c1S(=O)(=O)N1CCCCC1,inconclusive: -35.9%
6,CC(C)CNC(=O)c1ccccc1NC(=O)CCSc1ccccc1,inconclusive: -35.3%
7,Cc1ccc(C)c(OCC(=O)N2CCOCC2)c1,inconclusive: -32.3%
8,Cc1ccc(C(=O)n2nc(-c3ccco3)nc2N)cc1,inconclusive: -38.9%
9,Nc1ccn([C@@H]2O[C@H](CO)[C@@H](O)[C@@H]2O)c(=O)n1,inconclusive: -45.8%
10,COC(=O)c1ccc(C)c(NC(=O)c2c(-c3ccccc3)noc2C)c1,inactive: 15.9%
11,Cc1ccc(CN2CCN(/N=C/c3cccs3)CC2)cc1,active: -98.6%
12,COC(=O)c1c(C(=O)NCc2ccccc2)ncn1CC(O)COc1ccccc1 (stereo not given),inactive: 0.0908%
13,Cc1ccc(NC(=O)c2cc(NC(=O)CCCC(=O)O)ccc2Cl)cc1Cl,inactive: 23.9%
14,NC(=O)COC(=O)c1ccc(Cl)c(S(=O)(=O)N(Cc2ccccc2)c2ccc(Cl)cc2)c1,inconclusive: -53.5%
15,CCCc1cc(=O)oc2cc(OCC(=O)Nc3ccc4c(c3)OCCO4)ccc12,inconclusive: -42.4%
16,COc1ccccc1C(=O)NC1CCCCCCC1,inactive: -24.6%
17,CCCOc1cccc(OCCSc2nc(C)cc(=O)[nH]2)c1,active: -85.7%
18,Cc1ccc(C2CC(=O)Oc3cc(O)ccc32)cc1 (stereo not given),inactive: 46.8%
19,CC(c1ccco1)N(C(=O)c1ccccc1NS(=O)(=O)c1cccc([N+](=O)[O-])c1)c1ccccn1 (stereo not given),active: -102%
20,Cc1csc(NC(=O)CSc2nnc(-c3ccc(S(=O)(=O)N4CCCC4)cc3)o2)n1,inactive: 2.87%
21,COc1ccc(Cl)cc1NC(=O)CSc1nnc(-c2ccncc2)n1CC1CCCO1 (stereo not given),inconclusive: -50.8%
22,O=C(NN=C1CCCCC1)NC1CCCCC1,inconclusive: -40%
23,NC(=O)Cn1c(=O)oc2ccccc21,inconclusive: -79.9%

row,SMILES,"activity change (PNC), negative = inhibition"
1,COc1ccc2[nH]c(=O)c(COC(=O)c3ccco3)cc2c1,inconclusive: -64.6%
2,CCN(CC)S(=O)(=O)c1ccc(NC(=O)c2ccc(CN3CCOCC3)cc2)cc1,inconclusive: -41.6%
3,O=C1OCCC1Sc1nnc(-c2ccc(O)cc2)o1 (stereo not given),inconclusive: -30.2%
4,Cc1cc(C)n(C(=O)c2ccc([N+](=O)[O-])c(Cl)c2)n1,inconclusive: -30.3%
5,C(=C\c1ccccc1)/C=N/Nc1nc2ccccc2[nH]1,inactive: 10.2%
6,CC(NC(=O)CCOc1ccccc1)c1ccccc1 (stereo not given),inconclusive: -49.8%
7,CC(=O)c1ccc(NC(=O)Nc2ccc(Cl)cc2)cc1,inconclusive: -31%
8,Cc1ccc(CNC(=O)c2ccc(COc3ccccc3)cc2)cc1,inconclusive: -64.4%
9,CCn1cnc2sc(C(=O)N3CCN(c4ccc(OC)cc4)CC3)c(C)c2c1=O,inconclusive: -46.1%
10,COc1ccccc1Nc1nc(N)nc(CN2CCN(c3ccccc3)CC2)n1,inconclusive: -47.4%
11,CC1=C(C)CC(C(=O)NNC(=O)c2csc(C)c2C)C(C(=O)O)C1 (stereo not given),inconclusive: -38.4%
12,Cc1ccnc(N2CCC(C(=O)Nc3nnc(C)s3)CC2)n1,inconclusive: -30.6%
13,CCCCC(=O)c1c(O)c2ccccc2oc1=O,inconclusive: -35.4%
14,CCC(=O)Nc1cccc2c1C(=O)N(C)C2=O,active: -111%
15,COc1cccc(/C=N/n2c(-c3n[nH]c4c3CCC4)n[nH]c2=S)c1O,inactive: 12.3%
16,COC(=O)c1ccccc1NC(=O)CN1C(=O)c2ccccc2S1(=O)=O,inconclusive: -44.2%
17,Cc1ccc(S(=O)(=O)Nc2ccc(NC(=O)Nc3ccc(F)cc3F)cc2)cc1,inactive: -16.6%
18,COCCn1nnnc1CN1CCC(NC(=O)c2ccc(Br)cc2)CC1,active: -100%
19,COc1ccccc1-c1nc(C(F)(F)F)c(OC)o1,inconclusive: -56.6%
20,Cc1noc(C)c1COC(=O)c1cccc(S(=O)(=O)N2CCCCCC2)c1,inconclusive: -59.8%
21,Cc1ccc(C(=O)CSc2nnc(-c3ccc4[nH]c(C)c(C)c4c3)o2)cc1C,inactive: 35.7%

# Reference: PubChem BioAssay AID2417 (National Center for Advancing Translational Sciences (NCATS), 2010)
